These results are taken from the supplement of paper PMC12819154, “High-throughput peptide-centric local stability assay extends protein–ligand identification to membrane proteins, tissues and bacteria” (Nature Structural & Molecular Biology, 2025).

Sequences of proteins named here, by UniProt entry; tags and fusion partners are left off. A change or cut given only in a name is not applied to a line headed by its entry.
UniProt Q6ZNE5, whole entry: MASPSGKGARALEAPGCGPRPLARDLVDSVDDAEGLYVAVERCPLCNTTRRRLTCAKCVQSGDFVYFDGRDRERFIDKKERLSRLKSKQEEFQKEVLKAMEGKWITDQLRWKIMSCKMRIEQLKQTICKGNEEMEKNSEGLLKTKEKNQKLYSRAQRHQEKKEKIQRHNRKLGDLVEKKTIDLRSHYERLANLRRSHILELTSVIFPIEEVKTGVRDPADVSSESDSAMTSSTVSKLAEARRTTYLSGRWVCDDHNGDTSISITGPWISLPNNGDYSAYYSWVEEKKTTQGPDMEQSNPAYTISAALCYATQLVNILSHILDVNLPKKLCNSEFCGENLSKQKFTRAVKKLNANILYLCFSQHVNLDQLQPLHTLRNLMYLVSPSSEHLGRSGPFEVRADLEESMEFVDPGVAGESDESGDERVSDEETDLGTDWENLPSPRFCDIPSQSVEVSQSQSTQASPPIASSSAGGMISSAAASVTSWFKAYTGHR
UniProt Q76N32: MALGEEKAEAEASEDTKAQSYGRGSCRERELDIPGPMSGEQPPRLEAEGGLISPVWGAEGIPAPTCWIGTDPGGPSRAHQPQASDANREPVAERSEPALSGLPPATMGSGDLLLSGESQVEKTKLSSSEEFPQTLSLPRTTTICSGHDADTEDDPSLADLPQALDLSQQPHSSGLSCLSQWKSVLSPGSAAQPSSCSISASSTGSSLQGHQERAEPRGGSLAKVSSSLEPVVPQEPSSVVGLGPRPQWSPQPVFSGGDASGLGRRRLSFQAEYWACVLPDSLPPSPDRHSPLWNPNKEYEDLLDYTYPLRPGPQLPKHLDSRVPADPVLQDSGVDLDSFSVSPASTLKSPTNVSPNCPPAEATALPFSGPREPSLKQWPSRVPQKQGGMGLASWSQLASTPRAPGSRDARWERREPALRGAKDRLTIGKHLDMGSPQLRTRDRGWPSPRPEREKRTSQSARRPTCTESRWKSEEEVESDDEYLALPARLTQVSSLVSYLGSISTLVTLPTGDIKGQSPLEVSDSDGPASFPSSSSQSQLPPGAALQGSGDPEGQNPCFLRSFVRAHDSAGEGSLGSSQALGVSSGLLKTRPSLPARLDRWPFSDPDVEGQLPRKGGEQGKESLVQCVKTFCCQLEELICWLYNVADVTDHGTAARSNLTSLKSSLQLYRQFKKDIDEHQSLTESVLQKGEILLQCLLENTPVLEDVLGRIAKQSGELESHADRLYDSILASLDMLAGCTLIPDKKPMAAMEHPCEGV
UniProt Q7Z422: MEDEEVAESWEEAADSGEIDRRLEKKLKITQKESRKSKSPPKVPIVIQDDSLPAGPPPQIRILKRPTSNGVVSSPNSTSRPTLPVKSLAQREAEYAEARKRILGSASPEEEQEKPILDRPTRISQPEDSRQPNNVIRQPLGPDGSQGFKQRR
UniProt Q7Z460: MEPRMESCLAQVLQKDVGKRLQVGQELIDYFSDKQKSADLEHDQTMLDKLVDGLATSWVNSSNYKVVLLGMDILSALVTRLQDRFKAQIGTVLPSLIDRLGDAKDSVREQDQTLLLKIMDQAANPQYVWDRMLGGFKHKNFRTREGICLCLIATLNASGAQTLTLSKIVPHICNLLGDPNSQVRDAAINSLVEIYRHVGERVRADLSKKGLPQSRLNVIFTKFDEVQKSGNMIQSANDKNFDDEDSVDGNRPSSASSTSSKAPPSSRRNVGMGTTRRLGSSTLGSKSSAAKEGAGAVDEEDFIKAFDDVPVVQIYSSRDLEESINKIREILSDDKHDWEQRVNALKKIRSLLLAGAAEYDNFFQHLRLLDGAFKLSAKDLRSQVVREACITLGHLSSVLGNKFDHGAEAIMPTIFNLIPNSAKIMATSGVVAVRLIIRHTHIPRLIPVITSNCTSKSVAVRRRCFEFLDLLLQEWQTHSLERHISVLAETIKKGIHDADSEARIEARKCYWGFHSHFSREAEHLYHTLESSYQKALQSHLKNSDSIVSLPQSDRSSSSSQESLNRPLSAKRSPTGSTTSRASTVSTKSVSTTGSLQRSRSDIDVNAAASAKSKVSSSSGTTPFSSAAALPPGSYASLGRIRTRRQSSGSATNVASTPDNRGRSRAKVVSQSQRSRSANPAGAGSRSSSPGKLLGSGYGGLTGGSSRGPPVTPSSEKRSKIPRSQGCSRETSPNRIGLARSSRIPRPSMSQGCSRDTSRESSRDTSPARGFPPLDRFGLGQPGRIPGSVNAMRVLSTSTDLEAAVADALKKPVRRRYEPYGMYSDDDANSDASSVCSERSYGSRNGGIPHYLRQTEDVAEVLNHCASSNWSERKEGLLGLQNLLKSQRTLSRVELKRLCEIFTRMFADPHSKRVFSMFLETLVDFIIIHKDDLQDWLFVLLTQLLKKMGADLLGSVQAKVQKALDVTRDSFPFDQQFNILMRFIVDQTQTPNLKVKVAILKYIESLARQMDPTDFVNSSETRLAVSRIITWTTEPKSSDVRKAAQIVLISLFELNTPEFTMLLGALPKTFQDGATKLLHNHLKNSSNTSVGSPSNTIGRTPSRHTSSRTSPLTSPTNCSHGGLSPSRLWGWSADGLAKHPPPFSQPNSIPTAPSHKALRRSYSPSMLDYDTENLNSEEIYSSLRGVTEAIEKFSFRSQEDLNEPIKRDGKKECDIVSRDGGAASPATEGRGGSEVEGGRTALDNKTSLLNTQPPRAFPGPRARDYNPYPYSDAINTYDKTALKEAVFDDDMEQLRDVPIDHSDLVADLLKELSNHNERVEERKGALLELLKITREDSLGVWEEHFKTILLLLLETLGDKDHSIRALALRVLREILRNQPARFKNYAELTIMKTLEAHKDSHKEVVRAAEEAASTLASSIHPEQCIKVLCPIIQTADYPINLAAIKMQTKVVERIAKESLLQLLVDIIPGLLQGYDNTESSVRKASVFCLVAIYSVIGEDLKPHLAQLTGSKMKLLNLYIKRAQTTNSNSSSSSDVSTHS
UniProt Q7L1Q6: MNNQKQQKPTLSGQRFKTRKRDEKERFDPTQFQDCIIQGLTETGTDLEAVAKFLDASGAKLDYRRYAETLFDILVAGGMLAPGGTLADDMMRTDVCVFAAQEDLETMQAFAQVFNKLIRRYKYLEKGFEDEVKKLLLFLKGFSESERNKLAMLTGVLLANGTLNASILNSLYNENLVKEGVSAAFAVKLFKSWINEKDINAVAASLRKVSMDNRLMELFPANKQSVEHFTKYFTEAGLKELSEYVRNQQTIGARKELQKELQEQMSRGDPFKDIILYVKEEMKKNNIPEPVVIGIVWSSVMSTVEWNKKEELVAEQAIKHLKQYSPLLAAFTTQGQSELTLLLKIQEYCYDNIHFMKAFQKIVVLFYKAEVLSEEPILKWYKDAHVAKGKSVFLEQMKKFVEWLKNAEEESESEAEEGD
UniProt Q6ZN19: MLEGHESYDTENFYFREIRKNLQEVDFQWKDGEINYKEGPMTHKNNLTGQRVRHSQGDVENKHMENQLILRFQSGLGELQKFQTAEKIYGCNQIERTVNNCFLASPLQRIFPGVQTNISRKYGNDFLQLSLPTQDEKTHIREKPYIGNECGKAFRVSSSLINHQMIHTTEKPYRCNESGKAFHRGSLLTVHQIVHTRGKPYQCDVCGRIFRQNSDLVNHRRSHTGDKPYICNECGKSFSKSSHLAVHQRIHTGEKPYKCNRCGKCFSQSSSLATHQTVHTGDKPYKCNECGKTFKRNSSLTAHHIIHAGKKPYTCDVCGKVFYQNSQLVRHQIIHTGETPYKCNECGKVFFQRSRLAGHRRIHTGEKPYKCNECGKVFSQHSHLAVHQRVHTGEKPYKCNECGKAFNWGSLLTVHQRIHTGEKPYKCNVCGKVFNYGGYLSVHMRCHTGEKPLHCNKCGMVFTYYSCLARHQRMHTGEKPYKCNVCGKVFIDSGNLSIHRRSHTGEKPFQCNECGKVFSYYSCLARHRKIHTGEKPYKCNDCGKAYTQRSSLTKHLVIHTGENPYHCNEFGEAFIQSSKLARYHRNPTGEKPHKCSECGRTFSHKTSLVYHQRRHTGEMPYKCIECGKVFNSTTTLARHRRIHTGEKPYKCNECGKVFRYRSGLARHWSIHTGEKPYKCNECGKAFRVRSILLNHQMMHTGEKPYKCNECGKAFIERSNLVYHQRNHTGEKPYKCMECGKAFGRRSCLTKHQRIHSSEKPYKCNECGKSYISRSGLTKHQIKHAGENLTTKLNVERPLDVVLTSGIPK
UniProt Q7Z7E8: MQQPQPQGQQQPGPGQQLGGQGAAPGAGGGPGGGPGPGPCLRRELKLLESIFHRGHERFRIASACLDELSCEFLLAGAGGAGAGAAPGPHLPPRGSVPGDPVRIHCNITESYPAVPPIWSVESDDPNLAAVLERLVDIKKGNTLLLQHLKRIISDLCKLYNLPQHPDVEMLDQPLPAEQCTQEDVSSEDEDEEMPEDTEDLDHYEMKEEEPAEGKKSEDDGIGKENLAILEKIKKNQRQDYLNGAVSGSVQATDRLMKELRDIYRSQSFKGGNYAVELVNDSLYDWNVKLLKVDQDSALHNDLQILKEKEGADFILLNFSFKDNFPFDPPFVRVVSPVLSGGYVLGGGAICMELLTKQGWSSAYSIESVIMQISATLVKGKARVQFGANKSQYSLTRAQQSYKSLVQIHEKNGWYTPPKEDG
UniProt Q7KZF4: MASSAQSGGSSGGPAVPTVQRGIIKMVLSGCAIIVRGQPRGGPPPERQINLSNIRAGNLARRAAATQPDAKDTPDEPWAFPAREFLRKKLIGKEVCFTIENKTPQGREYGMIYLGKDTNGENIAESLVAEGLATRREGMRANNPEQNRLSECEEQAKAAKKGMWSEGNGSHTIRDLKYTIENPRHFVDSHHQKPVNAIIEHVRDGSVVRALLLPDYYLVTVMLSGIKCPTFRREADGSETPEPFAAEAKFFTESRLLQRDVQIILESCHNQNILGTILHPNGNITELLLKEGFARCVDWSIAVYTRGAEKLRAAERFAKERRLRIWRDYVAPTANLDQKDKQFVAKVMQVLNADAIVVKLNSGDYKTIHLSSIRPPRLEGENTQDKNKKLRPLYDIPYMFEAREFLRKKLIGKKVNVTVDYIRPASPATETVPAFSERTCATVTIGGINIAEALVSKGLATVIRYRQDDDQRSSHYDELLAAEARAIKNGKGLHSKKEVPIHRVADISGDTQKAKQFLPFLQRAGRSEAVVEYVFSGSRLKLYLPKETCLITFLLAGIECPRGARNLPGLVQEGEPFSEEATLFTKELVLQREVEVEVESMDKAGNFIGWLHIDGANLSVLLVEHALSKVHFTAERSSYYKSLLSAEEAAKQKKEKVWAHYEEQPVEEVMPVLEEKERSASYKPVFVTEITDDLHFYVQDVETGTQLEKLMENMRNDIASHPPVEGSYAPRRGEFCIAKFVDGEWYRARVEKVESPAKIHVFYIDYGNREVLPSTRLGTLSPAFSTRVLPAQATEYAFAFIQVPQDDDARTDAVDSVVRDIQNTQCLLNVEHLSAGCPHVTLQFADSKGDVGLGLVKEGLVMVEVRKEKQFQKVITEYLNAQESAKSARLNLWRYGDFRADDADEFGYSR
UniProt Q70J99: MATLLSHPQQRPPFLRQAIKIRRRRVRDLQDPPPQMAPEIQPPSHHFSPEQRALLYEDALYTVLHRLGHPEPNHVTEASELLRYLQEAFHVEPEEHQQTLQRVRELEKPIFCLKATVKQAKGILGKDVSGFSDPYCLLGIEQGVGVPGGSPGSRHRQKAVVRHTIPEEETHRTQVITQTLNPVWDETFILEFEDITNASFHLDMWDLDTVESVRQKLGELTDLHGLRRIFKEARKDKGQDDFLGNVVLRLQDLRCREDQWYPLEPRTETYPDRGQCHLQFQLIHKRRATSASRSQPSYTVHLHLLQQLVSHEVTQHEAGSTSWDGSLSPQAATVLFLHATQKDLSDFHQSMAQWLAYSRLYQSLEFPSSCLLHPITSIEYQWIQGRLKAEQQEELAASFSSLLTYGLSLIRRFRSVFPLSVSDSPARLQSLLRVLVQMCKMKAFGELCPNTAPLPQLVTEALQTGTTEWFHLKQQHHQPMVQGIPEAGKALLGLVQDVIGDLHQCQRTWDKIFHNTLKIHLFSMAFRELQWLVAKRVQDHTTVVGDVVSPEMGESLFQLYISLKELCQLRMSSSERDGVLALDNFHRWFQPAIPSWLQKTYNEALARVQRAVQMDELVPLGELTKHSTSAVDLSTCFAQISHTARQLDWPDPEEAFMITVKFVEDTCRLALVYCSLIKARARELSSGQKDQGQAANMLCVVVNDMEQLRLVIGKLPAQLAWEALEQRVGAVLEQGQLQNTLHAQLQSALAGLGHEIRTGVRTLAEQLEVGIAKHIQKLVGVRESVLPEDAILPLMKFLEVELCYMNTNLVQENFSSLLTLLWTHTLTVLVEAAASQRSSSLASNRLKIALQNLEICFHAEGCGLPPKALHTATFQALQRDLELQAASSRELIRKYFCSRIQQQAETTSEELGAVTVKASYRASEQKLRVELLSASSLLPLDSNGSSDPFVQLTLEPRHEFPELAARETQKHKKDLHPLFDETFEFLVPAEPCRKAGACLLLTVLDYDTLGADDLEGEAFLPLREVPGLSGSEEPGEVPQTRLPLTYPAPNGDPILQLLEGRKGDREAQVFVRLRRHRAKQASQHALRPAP

This is one part of the list. Small differences around the control level are noise.

Compound in this assay: Cc1nc(Nc2ncc(C(=O)Nc3c(C)cccc3Cl)s2)cc(N2CCN(CCO)CC2)n1 [dasatinib]
Nature of the assay: log2 fold change of tryptic peptide abundance, ligand vs vehicle (limited proteolysis) (log2 ratio); higher = more trypsin-susceptible (destabilized). The conditions noted are these: ligand concentration: 5 uM; sample: K562 cleared lysate.
“CNTRL (peptide sequence: QSEKEMEELHHNIDDLLQEK, peptide start residue: 1351) (UniProt Q7Z7A1)”: the log2 fold change was -0.901.
With “ATG14 (peptide sequence: NLMYLVSPSSEHLGR, peptide start residue: 377) (UniProt Q6ZNE5)”, the log2 fold change was -0.475.
The figure for “TLK2 (peptide sequence: RKPPAMGQAPPATNEQK, peptide start residue: 345) (UniProt Q86UE8)” is 0.0755; for “UniProt Q7Z3J3 (peptide sequence: STSGEGFQFGKKDPNFK, peptide start residue: 1953)” it is -0.0822.
The figure for “UniProt Q7L2H7 (peptide sequence: WISDWNLTTEKK, peptide start residue: 150)” is -0.244.
As for “TTC7B (peptide sequence: LNYVEGDYK, peptide start residue: 106) (UniProt Q86TV6)”, the log2 fold change came to 0.291.
Take “CEP68 (peptide sequence: SSLQLYR, peptide start residue: 663) (UniProt Q76N32)”: the log2 fold change was 0.19.
For the target “UniProt Q7Z422 (peptide sequence: ISQPEDSR, peptide start residue: 123)”, the log2 fold change was found to be 0.0794.
For the target “TRIM67 (peptide sequence: EFLVQLK, peptide start residue: 367) (UniProt Q6ZTA4)”, the log2 fold change worked out at 0.159.
In the case of “CLASP1 (peptide sequence: GPPVTPSSEKR, peptide start residue: 707) (UniProt Q7Z460)”, the log2 fold change was -0.296.
With “UniProt Q7L1Q6 (peptide sequence: GFSESERNK, peptide start residue: 141)”, the log2 fold change came out at 0.287.
Consider “UniProt Q6ZN19 (peptide sequence: GSLLTVHQIVHTR, peptide start residue: 185)”, for which the log2 fold change is 0.492.
Turning to “UniProt Q7Z4V5 (peptide sequence: MKGYPHWPAR, peptide start residue: 15)”, the log2 fold change stood at 0.24.
The figure for “DHRS11 (peptide sequence: VLPLSVTHFYSATK, peptide start residue: 157) (UniProt Q6UWP2)” is -0.211; for “PCGF5 (peptide sequence: ESEFWKK, peptide start residue: 94) (UniProt Q86SE9)” it is -0.446.
On to “UBE2Q1 (peptide sequence: GNTLLLQHLKR, peptide start residue: 141) (UniProt Q7Z7E8)”, for which the log2 fold change was -0.221.
The figure for “SND1 (peptide sequence: QINLSNIRAGNLAR, peptide start residue: 48) (UniProt Q7KZF4)” is 0.906; for “LIN28B (peptide sequence: EGSPLDIPVDVFVHQSK, peptide start residue: 52) (UniProt Q6ZN17)” it is 0.34.
For the target “UniProt Q7L592 (peptide sequence: LSEIQALTLTK, peptide start residue: 161)”, the log2 fold change was -0.243.
With “DCXR (peptide sequence: GTVQALHATGAR, peptide start residue: 22) (UniProt Q7Z4W1)”, the log2 fold change came out at 0.272.
On to “RINL (peptide sequence: SGPLPGEVNTYQIQKIPR, peptide start residue: 87) (UniProt Q6ZS11)”, for which the log2 fold change is -0.466.
For the target “UniProt Q7Z3I7 (peptide sequence: RTHIGEKPYK, peptide start residue: 460)”, the log2 fold change came out at 0.173.
For the target “RBM23 (peptide sequence: LAAMANNLQK, peptide start residue: 248) (UniProt Q86U06)”, the log2 fold change was -0.208.
In the case of “BRAP (peptide sequence: CTVCLER, peptide start residue: 264) (UniProt Q7Z569)”, the log2 fold change was -0.476.
For the target “EP400P1 (peptide sequence: QCLDYHHQEMQALK, peptide start residue: 356) (UniProt Q6ZTU2)”, the log2 fold change is -0.598.
Regarding “UNC13D (peptide sequence: QQHHQPMVQGIPEAGK, peptide start residue: 474) (UniProt Q70J99)”, the log2 fold change amounted to 0.125.
For “ZC3HAV1 (peptide sequence: VDDHDSEEICLDHLCK, peptide start residue: 504) (UniProt Q7Z2W4)”, the log2 fold change is -0.52.
“ASXL2 (peptide sequence: QHQQPFQVSPQPFLNRGDR, peptide start residue: 592) (UniProt Q76L83)”: the log2 fold change was -0.618.
